Results are given in words; binding and its absence hold for the method and conditions named. Binding seen in cells or lysates may run through a third protein. Some binding calls cover weakened binding; strength is not graded here. Tags and fused reporters may be left off the sequences shown.
T1: Flag-IKKβ (human (amplified from HeLa cells)) (UniProt O14920)
T1 sequence: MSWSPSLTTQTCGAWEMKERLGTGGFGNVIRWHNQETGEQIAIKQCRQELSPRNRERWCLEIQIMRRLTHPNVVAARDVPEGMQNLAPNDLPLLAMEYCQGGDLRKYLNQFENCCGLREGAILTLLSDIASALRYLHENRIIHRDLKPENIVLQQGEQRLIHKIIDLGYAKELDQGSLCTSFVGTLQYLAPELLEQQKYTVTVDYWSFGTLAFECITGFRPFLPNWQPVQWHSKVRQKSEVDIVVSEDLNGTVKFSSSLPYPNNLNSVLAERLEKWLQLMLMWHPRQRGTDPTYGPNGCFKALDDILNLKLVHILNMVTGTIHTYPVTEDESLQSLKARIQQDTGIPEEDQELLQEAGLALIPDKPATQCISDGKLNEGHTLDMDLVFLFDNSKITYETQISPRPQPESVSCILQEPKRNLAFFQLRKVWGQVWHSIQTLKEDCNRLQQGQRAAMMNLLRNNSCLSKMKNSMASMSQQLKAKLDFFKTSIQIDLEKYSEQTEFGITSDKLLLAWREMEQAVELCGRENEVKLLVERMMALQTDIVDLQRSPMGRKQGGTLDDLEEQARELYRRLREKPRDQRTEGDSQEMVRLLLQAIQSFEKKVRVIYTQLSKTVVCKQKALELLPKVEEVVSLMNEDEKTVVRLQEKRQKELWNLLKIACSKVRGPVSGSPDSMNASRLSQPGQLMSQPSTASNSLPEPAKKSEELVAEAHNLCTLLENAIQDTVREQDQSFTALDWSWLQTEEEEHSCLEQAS

The chains behind the UniProt entries cited, without tags or fusion partners. Where a name states a change or a piece, a line headed by the entry shows the natural chain unless it says otherwise. A line that says so, or that is headed by a name, gives the form on record, which may keep a tag or linker. Residues count along the entry.
Flag-Stk24-C terminus (amino acids 314–431 of Stk24) (Q9Y6E0, residues 326-443): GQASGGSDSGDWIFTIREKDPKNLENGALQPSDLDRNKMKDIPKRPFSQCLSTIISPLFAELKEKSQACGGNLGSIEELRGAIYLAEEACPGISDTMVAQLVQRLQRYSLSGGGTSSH
Myc-Stk24 (Q9Y6E0-2, form named): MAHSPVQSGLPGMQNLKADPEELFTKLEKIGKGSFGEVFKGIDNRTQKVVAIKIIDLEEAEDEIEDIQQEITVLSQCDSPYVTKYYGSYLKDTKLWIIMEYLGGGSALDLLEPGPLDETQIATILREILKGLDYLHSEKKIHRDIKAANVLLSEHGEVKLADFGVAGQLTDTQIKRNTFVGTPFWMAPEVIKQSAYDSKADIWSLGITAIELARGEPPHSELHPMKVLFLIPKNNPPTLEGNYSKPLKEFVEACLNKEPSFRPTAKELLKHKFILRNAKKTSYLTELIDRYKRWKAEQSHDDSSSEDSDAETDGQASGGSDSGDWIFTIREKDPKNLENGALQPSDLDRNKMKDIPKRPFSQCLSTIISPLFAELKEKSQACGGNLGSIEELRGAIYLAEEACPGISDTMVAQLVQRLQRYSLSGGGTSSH
Flag-Stk24-N terminus (amino acids 1–313 of Stk24) (Q9Y6E0-2, form named): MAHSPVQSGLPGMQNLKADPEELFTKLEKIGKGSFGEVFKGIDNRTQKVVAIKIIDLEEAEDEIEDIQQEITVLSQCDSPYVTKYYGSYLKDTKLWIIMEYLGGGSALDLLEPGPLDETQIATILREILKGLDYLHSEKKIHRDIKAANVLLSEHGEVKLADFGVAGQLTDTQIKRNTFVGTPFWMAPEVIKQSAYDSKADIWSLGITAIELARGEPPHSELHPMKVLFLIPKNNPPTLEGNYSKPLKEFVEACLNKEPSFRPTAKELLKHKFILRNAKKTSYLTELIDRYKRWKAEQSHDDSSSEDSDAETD

T2: Flag-TAK1 (UniProt O43318)
T2 sequence: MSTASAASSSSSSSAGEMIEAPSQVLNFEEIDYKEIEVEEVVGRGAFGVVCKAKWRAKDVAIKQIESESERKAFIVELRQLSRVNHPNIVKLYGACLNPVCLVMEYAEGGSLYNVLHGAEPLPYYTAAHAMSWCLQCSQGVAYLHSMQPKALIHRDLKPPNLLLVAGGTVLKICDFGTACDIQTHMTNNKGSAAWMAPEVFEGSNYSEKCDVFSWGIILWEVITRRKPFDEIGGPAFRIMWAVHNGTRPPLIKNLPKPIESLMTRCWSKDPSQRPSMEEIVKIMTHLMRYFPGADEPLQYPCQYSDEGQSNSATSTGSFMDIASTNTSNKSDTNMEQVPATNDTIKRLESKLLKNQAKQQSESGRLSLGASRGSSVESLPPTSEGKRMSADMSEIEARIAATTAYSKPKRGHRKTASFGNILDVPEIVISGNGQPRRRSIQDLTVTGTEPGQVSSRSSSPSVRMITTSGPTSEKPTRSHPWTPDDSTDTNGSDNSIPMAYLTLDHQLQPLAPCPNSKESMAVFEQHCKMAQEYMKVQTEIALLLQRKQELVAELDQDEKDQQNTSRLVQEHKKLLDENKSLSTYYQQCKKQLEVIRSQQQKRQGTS

T3: Flag-TAK1-N terminal (amino acids 1–303) (UniProt O43318)
T3 sequence: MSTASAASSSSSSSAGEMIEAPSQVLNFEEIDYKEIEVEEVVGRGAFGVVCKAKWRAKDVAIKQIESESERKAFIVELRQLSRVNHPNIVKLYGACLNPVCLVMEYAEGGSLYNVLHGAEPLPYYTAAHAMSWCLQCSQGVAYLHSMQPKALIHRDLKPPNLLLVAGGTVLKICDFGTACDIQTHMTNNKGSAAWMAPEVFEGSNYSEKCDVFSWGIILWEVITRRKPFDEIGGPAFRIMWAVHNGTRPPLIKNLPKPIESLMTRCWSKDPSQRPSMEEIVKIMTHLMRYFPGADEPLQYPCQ

T4: Flag-IKKβ-HLH (amino acids 577–756 of IKKβ) (human (amplified from HeLa cells)) (UniProt O14920)
T4 sequence: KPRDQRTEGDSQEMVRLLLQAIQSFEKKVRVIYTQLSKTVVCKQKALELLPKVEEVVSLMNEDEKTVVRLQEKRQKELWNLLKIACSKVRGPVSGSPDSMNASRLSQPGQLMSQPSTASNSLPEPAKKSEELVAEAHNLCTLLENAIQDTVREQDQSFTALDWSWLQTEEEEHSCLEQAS


Assays:
Assay in all cases: co-IP; transfected HEK293T cells lysed in 20 mM Tris pH 7.4, 150 mM NaCl, 1 mM EDTA, 10% glycerol, 1% NP-40; immunoprecipitation with anti-Flag M2 beads for 3-4 h; immunoblot with anti-Myc, anti-HA or anti-Flag
[1] = target: T1, Flag-IKKβ (human (amplified from HeLa cells))
Flag-TAK1 = target: T2, Flag-TAK1
[2] = target: T3, Flag-TAK1-N terminal (amino acids 1–303)
[3] = target: T4, Flag-IKKβ-HLH (amino acids 577–756 of IKKβ) (human (amplified from HeLa cells))
[4] = target: Flag-Stk24-C terminus (amino acids 314–431 of Stk24) (human) (UniProt Q9Y6E0)
[5] = target: Flag-Stk24-N terminus (amino acids 1–313 of Stk24) (human) (UniProt Q9Y6E0)

| Molecule | binding [1] | binding (Flag-TAK1) | binding [2] | binding [3] | binding [4] | binding [5] |
| --- | --- | --- | --- | --- | --- | --- |
| Myc-Stk24 (from UniProt Q9Y6E0-2 1-431) | binds | binds | binds | binds | – | – |
| Myc-IKKβ (protein, UniProt O14920 1-756) MSWSPSLTTQTCGAWEMKERLGTGGFGNVIRWHNQETGEQIAIKQCRQELSPRNRERWCLEIQIMRRLTHPNVVAARDVPEGMQNLAPNDLPLLAMEYCQGGDLRKYLNQFENCCGLREGAILTLLSDIASALRYLHENRIIHRDLKPENIVLQQGEQRLIHKIIDLGYAKELDQGSLCTSFVGTLQYLAPELLEQQKYTVTVDYWSFGTLAFECITGFRPFLPNWQPVQWHSKVRQKSEVDIVVSEDLNGTVKFSSSLPYPNNLNSVLAERLEKWLQLMLMWHPRQRGTDPTYGPNGCFKALDDILNLKLVHILNMVTGTIHTYPVTEDESLQSLKARIQQDTGIPEEDQELLQEAGLALIPDKPATQCISDGKLNEGHTLDMDLVFLFDNSKITYETQISPRPQPESVSCILQEPKRNLAFFQLRKVWGQVWHSIQTLKEDCNRLQQGQRAAMMNLLRNNSCLSKMKNSMASMSQQLKAKLDFFKTSIQIDLEKYSEQTEFGITSDKLLLAWREMEQAVELCGRENEVKLLVERMMALQTDIVDLQRSPMGRKQGGTLDDLEEQARELYRRLREKPRDQRTEGDSQEMVRLLLQAIQSFEKKVRVIYTQLSKTVVCKQKALELLPKVEEVVSLMNEDEKTVVRLQEKRQKELWNLLKIACSKVRGPVSGSPDSMNASRLSQPGQLMSQPSTASNSLPEPAKKSEELVAEAHNLCTLLENAIQDTVREQDQSFTALDWSWLQTEEEEHSCLEQAS | – | – | – | – | binds | no binding |

From paper PMC5936754
